Earlier results, collected in patent US20130178495A1, “IBUDILAST FOR RELIEVING NEGATIVE EFFECTS OF MEDICATION OVERUSE HEADACHE” (MediciNova, Inc., priority 2011, published 2013).
At least one structure is not confirmed: it was looked up by name or label, or the drawing left a doubt.

Settings: rat, bilateral indwelling catheters between the meninges and the skull

SMILES: CN(C)c1ccc(O)c2c1C[C@H]1C[C@H]3[C@H](N(C)C)C(O)=C(C(N)=O)C(=O)[C@@]3(O)C(O)=C1C2=O [minocycline]
- facial allodynia: blocked and reversed facial allodynia
